Values from PubChem BioAssay AID504804 (Drosophila RNAi Screening Center, 2011)

- Screen: 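dsRNAs that improve Kc cell survival under doxorubicin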 (primary screen)
- System: Drosophila Kc cells
- Reagent: long dsRNA against Drosophila genes, 0.5 µg dsRNA per well
- Timing: 96 h (48 h knock-down, then 48 h drug)
- Challenge: doxorubicin 5 µg/ml for 48 h, added 48 h after dsRNA
- Measurement: 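Luminescent ATP counts per replicate, not normalised, reflecting viable cells after 48 h dsRNA knock-down followed by 48 h of 5 µg/ml doxorubicin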
- Direction: raw ATP luminescence: higher = more viable cells, protection from doxorubicin
- Active means: 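Active when both duplicate wells lie at least 2 SD above the plate mean and protection is confirmed by rescreening and independent dsRNAs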
The screen tested about 19,000 reagents; below is a random part of those with a known target gene and a result. In the full data, 47 (0.25%) were called active. 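Signals are raw, not normalised; exact z-scores behind calls not deposited; actives needed confirmation, so some wells reaching 2 SD are inactive.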 Reagents against one gene are numbered here. A plus sign joins genes that one reagent is predicted to hit. No sequences are given here.

| gene knocked down | reagent | raw ATP luminescence, replicate 1 | raw ATP luminescence, replicate 2 | Call |
| --- | --- | --- | --- | --- |
| CG32813 | 1 | 48330 | 56620 | inactive |
| CalpB | 1 | 37843 | 37717 | inactive |
| bin | 1 | 65160 | 77840 | inactive |
| Grl40a | 1 | 1.06e5 | 75103 | inactive |
| CG2111 | 1 | 3.25e5 | 3.32e5 | inactive |
| CG9951 | 1 | 26610 | 24950 | inactive |
| CG14455 | 1 | 64127 | 52107 | inactive |
| Ctr9 | 1 | 60313 | 70953 | inactive |
| Npc2g | 1 | 68930 | 54290 | inactive |
| IP3K2 | 1 | 3.60e5 | 3.39e5 | inactive |
| IP3K2 | 2 | 3.69e5 | 3.74e5 | inactive |
| Gale | 1 | 39007 | 61683 | inactive |
| CG15725 | 1 | 3.24e5 | 3.17e5 | inactive |
| tub | 1 | 16870 | 18540 | inactive |
| RapGAP1 | 1 | 25233 | 25080 | inactive |
| RapGAP1 | 2 | 23433 | 22887 | inactive |
| RapGAP1 | 3 | 97193 | 62187 | inactive |
| Scamp | 1 | 2.60e5 | 2.21e5 | inactive |
| trx | 1 | 48257 | 22503 | inactive |
| ORMDL | 1 | 72967 | 67523 | inactive |
| eyg | 1 | 38197 | 34153 | inactive |
| east | 1 | 36490 | 34620 | inactive |
| bon | 1 | 56810 | 72390 | inactive |
| CG8065 | 1 | 75757 | 53403 | inactive |
| Trm1 | 1 | 98803 | 64333 | inactive |
| CG2871 | 1 | 40480 | 41190 | inactive |
| CG15601 | 1 | 3.33e5 | 3.61e5 | inactive |
| Prosalpha4 | 1 | 3.07e5 | 3.15e5 | inactive |
| Wdr92 | 1 | 83883 | 64690 | inactive |
| CG13581 | 1 | 51200 | 46767 | inactive |
| Ac78C | 1 | 71190 | 79723 | inactive |
| Ac78C | 2 | 72407 | 61187 | inactive |
| Ac78C | 3 | 63983 | 59967 | inactive |
| EloA | 1 | 35757 | 33950 | inactive |
| Wdr62 | 1 | 3.02e5 | 2.71e5 | inactive |
| Wdr62 | 2 | 3.21e5 | 3.16e5 | inactive |
| Wdr62 | 3 | 55960 | 31313 | inactive |
| CG11293 (retired record) | 1 | 50157 | 44283 | inactive |
| BckdhB | 1 | 3.30e5 | 3.08e5 | inactive |
| Mst84Dc | 1 | 67587 | 46297 | inactive |
| amx | 1 | 2.93e5 | 3.22e5 | inactive |
| Nrx-IV | 1 | 35843 | 28430 | inactive |
| CG8738 | 1 | 41107 | 79610 | inactive |
| CG15247 | 1 | 3.27e5 | 3.19e5 | inactive |
| Eig71Ea | 1 | 71167 | 61933 | inactive |
| Tep2 | 1 | 18597 | 24317 | inactive |
| Tep2 | 2 | 21053 | 18640 | inactive |
| Hr39 | 1 | 69873 | 69123 | inactive |
| nAChRalpha7 | 1 | 3.32e5 | 3.14e5 | inactive |
| nAChRalpha7 | 2 | 3.27e5 | 3.09e5 | inactive |
| CG42747 | 1 | 96390 | 1.00e5 | inactive |
| CG42747 | 2 | 56350 | 71317 | inactive |
| CG12268 | 1 | 67150 | 85750 | inactive |
| Mvl | 1 | 38303 | 38387 | inactive |
| Pus7 | 1 | 93280 | 94290 | inactive |
| CG16896 | 1 | 88710 | 57933 | inactive |
| CG15084 | 1 | 64717 | 46683 | inactive |
| CG14689 | 1 | 60483 | 59373 | inactive |
| CG13247 | 1 | 77643 | 65080 | inactive |
| TkR86C | 1 | 68133 | 53880 | inactive |
| CG32248 | 1 | 1.33e5 | 1.81e5 | inactive |
| CG18473 | 1 | 68997 | 58180 | inactive |
| Kots | 1 | 77873 | 23600 | inactive |
| His3:CG33818 + His3:CG33857 + His3:CG33806 + 20 more | 1 | 1.32e5 | 1.07e5 | inactive |
| RpS25 | 1 | 47363 | 35700 | inactive |
| Mettl14 | 1 | 1.04e5 | 71043 | inactive |
| trbd | 1 | 43337 | 39067 | inactive |
| CG11309 | 1 | 27577 | 22660 | inactive |
| mRpL45 | 1 | 53360 | 55510 | inactive |
| Usp2 | 1 | 2.18e5 | 2.05e5 | inactive |
| Usp2 | 2 | 2.75e5 | 2.92e5 | inactive |
| pyr | 1 | 1.33e5 | 1.10e5 | inactive |
| Zif | 1 | 57440 | 21870 | inactive |
| CG8543 | 1 | 87083 | 83240 | inactive |
| tomboy40 | 1 | 67403 | 63657 | inactive |
| CG43795 | 1 | 46870 | 65923 | inactive |
| CG43795 | 2 | 50400 | 63533 | inactive |
| CG43795 | 3 | 58117 | 46777 | inactive |
| CG43795 | 4 | 57317 | 47283 | inactive |
| CG43795 | 5 | 54207 | 46557 | inactive |
| CG6168 | 1 | 70517 | 71187 | inactive |
| CG5787 | 1 | 1.04e5 | 60793 | inactive |
| salm | 1 | 40187 | 82040 | inactive |
| klu | 1 | 1.05e5 | 79793 | inactive |

Just “raw ATP luminescence, replicate 1”, for 4 of the entries above:
Wdr92	83883
CG13581	51200
Ac78C #1	71190
Ac78C #2	72407
